Test system: HLA molecules of primary tumor and normal tissue samples (cancer entities)
Assay: Identification and label-free LC-MS quantitation of HLA-presented tumor-associated peptides on tissue samples
Design: species or system human
Details: cancer entities on whose tumor tissue samples the HLA-presented peptide was found (LC-MS); abbreviations in the footnotes of Table 8a

Row | Substance | Peptide Presentation on cancer entities
1 | 1 (IFPKTGLLII; listed as Homo sapiens) [compound 1] | NSOLCadeno, NSCLCsquam, OSCAR
2 | 4 (MVLQPQPQLF; listed as Homo sapiens) [compound 4] | NSCLCadeno
3 | 5 (LQPQPQLFFSF; listed as Homo sapiens) [compound 5] | PRCA
4 | 6 (IVTFMNKTLGTF; listed as Homo sapiens) [compound 6] | NSCLCadeno
5 | 9 (TYINSLAIL; listed as Homo sapiens) [compound 9] | NSCLCadeno, PRCA, RCC, UBC
6 | 10 (QYPEFSIEL; listed as Homo sapiens) [compound 10] | PRCA
7 | 11 (RAMCAMMSF; listed as Homo sapiens) [compound 11] | PACA
8 | 21 (LYMRFVNTHF; listed as Homo sapiens) [compound 21] | AML
9 | 22 (VYSSFVFNL; listed as Homo sapiens) [compound 22] | NHL
10 | 23 (VYSSFVFNLF; listed as Homo sapiens) [compound 23] | NHL
11 | 24 (KMLPEASLLI; listed as Homo sapiens) [compound 24] | NHL
12 | 25 (MLPEASLLI; listed as Homo sapiens) [compound 25] | NHL
13 | 27 (LSCTATPLF; listed as Homo sapiens) [compound 27] | NSCLCadeno
14 | 30 (RQAYSVYAF; listed as Homo sapiens) [compound 30] | PRCA
15 | 33 (FYQPDLKYLSF; listed as Homo sapiens) [compound 33] | NHL
16 | 34 (LIFALALAAF; listed as Homo sapiens) [compound 34] | UEC
17 | 36 (VYLASVAAF; listed as Homo sapiens) [compound 36] | PRCA
18 | 37 (ISFSDTVNVW; listed as Homo sapiens) [compound 37] | RCC
19 | 38 (RYAHTLVTSVLF; listed as Homo sapiens) [compound 38] | BRCA, MEL
20 | 41 (IYFATQVVF; listed as Homo sapiens) [compound 41] | PRCA
21 | 42 (VYDSIWCNM; listed as Homo sapiens) [compound 42] | UEC
22 | 43 (KYKDHFTEI; listed as Homo sapiens) [compound 43] | BRCA, GBC, NHL, NSCLCadeno, NSCLCsquam
23 | 44 (FYHEDMPLW; listed as Homo sapiens) [compound 44] | NHL
24 | 45 (YGQSKPWTF; listed as Homo sapiens) [compound 45] | HCC, HNSCC, NSCLCadeno, NSCLCsquam, OSCAR, RCC
25 | 46 (IYPDSIQEL; listed as Homo sapiens) [compound 46] | HCC
26 | 47 (SYLWTDNLQEF; listed as Homo sapiens) [compound 47] | OSCAR
27 | 49 (QYLSIAERAEF; listed as Homo sapiens) [compound 49] | GC, UBC

Row | Substance | Peptide Presentation on cancer entities
28 | 50 (RYFDENIQKF; listed as Homo sapiens) [compound 50] | OSCAR
29 | 51 (YFDENIQKF; listed as Homo sapiens) [compound 51] | NSCLCsquam, OSCAR
30 | 52 (SWHKATFLF; listed as Homo sapiens) [compound 52] | AML
31 | 53 (LFQRVSSVSF; listed as Homo sapiens) [compound 53] | HCC
32 | 54 (SYQEAIQQL; listed as Homo sapiens) [compound 54] | PRCA
33 | 60 (RYSPVKDAW; listed as Homo sapiens) [compound 60] | CCC, GBC, NHL, NSCLCadeno, NSCLCother, NSCLCsquam, OC, OSCAR
34 | 61 (RIFTARLYF; listed as Homo sapiens) [compound 61] | NHL
35 | 63 (LYIDKGQYL; listed as Homo sapiens) [compound 63] | GBM, HNSCC, MEL, NSCLCadeno, NSCLCsquam
36 | 64 (QFSHVPLNNF; listed as Homo sapiens) [compound 64] | NSCLCsquam
37 | 65 (EYLLMIFKLV; listed as Homo sapiens) [compound 65] | NSCLCadeno, NSCLCsquam, PRCA
38 | 68 (VYKEDLPQL; listed as Homo sapiens) [compound 68] | CLL, NSCLCsquam
39 | 69 (KWFDSHIPRW; listed as Homo sapiens) [compound 69] | GBC
40 | 70 (RYTGQWSEW; listed as Homo sapiens) [compound 70] | UBC
41 | 72 (RWLDGSPVTL; listed as Homo sapiens) [compound 72] | NHL
42 | 73 (YFCSTKGQLF; listed as Homo sapiens) [compound 73] | CLL, NHL
43 | 74 (NYVLVPTMF; listed as Homo sapiens) [compound 74] | CCC, CRC, GBC, GC, HCC, NSCLCadeno, NSCLCsquam, OC, UEC
44 | 75 (VYEHNHVSL; listed as Homo sapiens) [compound 75] | UBC
45 | 77 (LYGFFFKI; listed as Homo sapiens) [compound 77] | GC, HCC, UBC
46 | 78 (TYSKTIALYGF; listed as Homo sapiens) [compound 78] | UBC
47 | 82 (SYLENSASW; listed as Homo sapiens) [compound 82] | BRCA, HNSCC, NSCLCadeno, OSCAR, SCLC, UEC
48 | 83 (VLQGEFFLF; listed as Homo sapiens) [compound 83] | NHL
49 | 84 (YTIERYFTL; listed as Homo sapiens) [compound 84] | GC, NSCLCsquam, UEC
50 | 86 (SYLPTAERL; listed as Homo sapiens) [compound 86] | GBC, GBM, GC, HCC, NSCLCadeno, NSCLCother, NSCLCsquam, PACA, PRCA, UEC
51 | 87 (NYTRLVLQF; listed as Homo sapiens) [compound 87] | CCC, GBC, GC, NSCLCsquam, OSCAR, UEC
52 | 88 (TYVPSTFLV; listed as Homo sapiens) [compound 88] | CCC, GBM, GC, NSCLCsquam, OSCAR, PACA
53 | 90 (TDLVQFLLF; listed as Homo sapiens) [compound 90] | RCC
54 | 91 (KQQVVKFLI; listed as Homo sapiens) [compound 91] | PRCA

Row | Substance | Peptide Presentation on cancer entities
55 | 92 (RALTETIMF; listed as Homo sapiens) [compound 92] | UEC
56 | 93 (TDWSPPPVEF; listed as Homo sapiens) [compound 93] | NSCLCsquam
57 | 98 (LQIPVSPSF; listed as Homo sapiens) [compound 98] | MEL
58 | 99 (ASAALTGFTF; listed as Homo sapiens) [compound 99] | OC, PRCA
59 | 100 (KVWSDVTPLTF; listed as Homo sapiens) [compound 100] | CCC, NSCLCsquam, PACA
60 | 101 (VYAVSSDRF; listed as Homo sapiens) [compound 101] | GBM
61 | 102 (VLASAHILQF; listed as Homo sapiens) [compound 102] | NSCLCadeno
62 | 103 (EMFFSPQVF; listed as Homo sapiens) [compound 103] | CRC, HCC, NSCLCadeno
63 | 104 (GYGLTRVQPF; listed as Homo sapiens) [compound 104] | NSCLCadeno
64 | 105 (ITPATALLL; listed as Homo sapiens) [compound 105] | NHL
65 | 107 (FFFKAGFVWR; listed as Homo sapiens) [compound 107] | NSCLCsquam, UEC
66 | 108 (WFFQGAQYW; listed as Homo sapiens) [compound 108] | HCC
67 | 109 (AQHSLTQLF; listed as Homo sapiens) [compound 109] | GBM
68 | 110 (VYSNPDLFW; listed as Homo sapiens) [compound 110] | NSCLCadeno
69 | 111 (IRPDYSFQF; listed as Homo sapiens) [compound 111] | NSCLCadeno
70 | 113 (ALMSAFYTF; listed as Homo sapiens) [compound 113] | NSCLCsquam
71 | 114 (KALMSAFYTF; listed as Homo sapiens) [compound 114] | CCC
72 | 115 (IMQGFIRAF; listed as Homo sapiens) [compound 115] | NSCLCadeno
73 | 117 (RSMEHPGKLLF; listed as Homo sapiens) [compound 117] | NSCLCadeno, UEC
74 | 119 (VWSCEGCKAF; listed as Homo sapiens) [compound 119] | UBC
75 | 121 (RRYFGEKVAL; listed as Homo sapiens) [compound 121] | PRCA
76 | 122 (YFLRGRLYW; listed as Homo sapiens) [compound 122] | NSCLCsquam, OC
77 | 123 (FFLQESPVF; listed as Homo sapiens) [compound 123] | HCC
78 | 125 (LYYGSILYI; listed as Homo sapiens) [compound 125] | MEL
79 | 126 (YSLLDPAQF; listed as Homo sapiens) [compound 126] | CRC, NSCLCadeno, PACA, PRCA, UEC

Source: patent publication US12060400B2, “Peptides for use in immunotherapy against cancers” (Immatics Biotechnologies GmbH, priority 2018, dated 2024)
